We go through 20 molecules from PubChem BioAssay AID330 (DTP/NCI, 2004).

The subject of the assay is P388 leukemia ip, CD2F1 mice, survival T/C. In words: NCI In Vivo Anticancer Drug Screen. Data for tumor model P388 Leukemia (intraperitoneal) in CD2F1 (CDF1) mice. The note with it: T/C endpoint: median survival time, higher T/C = longer survival.
Where [1] appears, read: dose: 200.0 mg/kg/injection, schedule: Q01DX009 (ip), vehicle: saline.
Where [2] appears, read: dose: 25.0 mg/kg/injection, schedule: Q01DX009 (ip), vehicle: Klucel (hydroxypropylcellulose) (HPC).
Setting [3] is: dose: 50.0 mg/kg/injection, schedule: Q01DX009 (ip), vehicle: Klucel (hydroxypropylcellulose) (HPC).
The mark [4] stands for this setting: dose: 50.0 mg/kg/injection, schedule: Q01DX005 (ip), vehicle: Klucel (hydroxypropylcellulose) (HPC).
Setting [5] is: dose: 100.0 mg/kg/injection, schedule: Q01DX005 (ip), vehicle: Klucel (hydroxypropylcellulose) (HPC).
[6] abbreviates: dose: 200.0 mg/kg/injection, schedule: Q01DX005 (ip), vehicle: Klucel (hydroxypropylcellulose) (HPC).
Setting [7] is: dose: 25.0 mg/kg/injection, schedule: Q01DX005 (ip), vehicle: distilled water + Tween-80.

The list is a part of this screen's results and no random one: it gathers tests that were run many times, whatever their T/C, doses with no T/C, and many T/C values between a quarter and a half above the control. Further doses and runs are listed elsewhere. T/C: endpoint of the treated group in % of that of the vehicle group. Some entries give survivors of the animals treated and no T/C: the source holds a T/C of zero for them, seemingly a mark for toxic or unscored doses. Some doses without a T/C left all or most animals alive at the check, yet need not have been tolerated: the source hardly ever lists a survival T/C far under the control, and the zero likely stands for such cases as well. Survivors were counted at the toxicity check, usually on the fifth day, unless a day is given; later deaths do not show. Schedule codes are those of the source, taken here to give the interval after Q, in days (D) or hours (H), and the number of doses after X. Some doses were run more than once; the results are listed from low to high. Signs of the kind (2×) give the number of equal values in this list. For survival time, this PubChem deposit counts one and a half times the control or more as active, and values a quarter to a half above the control carry no call in these data; other NCI protocols may use other cut-offs. Some T/C values carry the count of animals alive at the toxicity check (mostly the fifth day); where none is given, no animal had died by that day.

As for `CCN(CC)CCOC(=O)Cc1cccc2c(=O)cc(-c3ccccc3)oc12`, the T/C runs as follows: (dose: 50.0 mg/kg/injection, schedule: Q01DX009 (ip), vehicle: saline, evaluated on day 20) 106 % of control; (dose: 50.0 mg/kg/injection, schedule: Q01DX009 (ip), vehicle: saline, evaluated on day 30) 96 and 113 % of control; (dose: 50.0 mg/kg/injection, schedule: Q01DX009 (ip), vehicle: saline, evaluated on day 60) 99 % of control; (dose: 100.0 mg/kg/injection, schedule: Q01DX009 (ip), vehicle: saline, evaluated on day 20) 117 % of control; (dose: 100.0 mg/kg/injection, schedule: Q01DX009 (ip), vehicle: saline, evaluated on day 30) 111 and 138 % of control; (dose: 100.0 mg/kg/injection, schedule: Q01DX009 (ip), vehicle: saline, evaluated on day 60) 118 % of control. Further, the T/C (dose: 200.0 mg/kg/injection, schedule: Q01DX005 (ip), vehicle: saline) is 131 % of control; the T/C under setting [1] was 194 % of control; the T/C (dose: 200.0 mg/kg/injection, schedule: Q04DX003 (ip), vehicle: saline) is 131 % of control [9 of 10 alive]. Moreover, the survivor count was 2 of 6 (2×) and 9 of 10 under setting [1]; 1 of 10 (dose: 300.0 mg/kg/injection, schedule: Q01DX005 (ip), vehicle: saline); 1 of 10 (dose: 300.0 mg/kg/injection, schedule: Q01DX009 (ip), vehicle: saline); 3 of 10 (dose: 300.0 mg/kg/injection, schedule: Q04DX003 (ip), vehicle: saline).

For the molecule `O=C(CCBr)N1CCN(C(=O)CCBr)CC1`, the T/C (dose: 20.0 mg/kg/injection, schedule: Q01DX010 (ip), vehicle: Klucel (hydroxypropylcellulose) (HPC)) is 149 % of control.

Consider `O=C(O)CCC(=O)O`, for which the survivor count (dose: 10.0 mg/kg/injection, schedule: Q01DX009 (ip), vehicle: water) is given as 6 of 6.

In the case of `CC(=O)Oc1cc2c(=O)oc3c(OC(C)=O)c(OC(C)=O)c(OC(C)=O)c4c(=O)oc(c1OC(C)=O)c2c34`, the survivor count under setting [2] was 6 of 6; the survivor count under setting [3] was 6 of 6; the survivor count (dose: 100.0 mg/kg/injection, schedule: Q01DX009 (ip), vehicle: saline) is on record as 6 of 6; the survivor count (dose: 400.0 mg/kg/injection, schedule: Q01DX009 (ip), vehicle: Klucel (hydroxypropylcellulose) (HPC)) is listed as 5 of 6.

Regarding `CN1CCN(Cc2ccccc2)C(C#N)C1` (stereo not drawn), the survivor count (dose: 200.0 mg/kg/injection, schedule: Q01DX005 (ip), vehicle: water) is on record as 0 of 6.

For `Nc1nc2c(ccc3ccccc32)s1`, for the setting “dose: 400.0 mg/kg/injection, schedule: Q01DX009 (ip), vehicle: saline with Tween-80”, the survivor count is 0 of 6 (2×) and 3 of 6.

Turning to `CCCCCCCCCCNCCSSCc1ccc(OC)cc1`, the survivor count was 5 of 5 under setting [4], 0 of 5 under setting [5] and 0 of 5 under setting [6].

For `O=C(O)c1cc(C(=O)O)c(C(=O)O)cc1C(=O)O.[NH2-].[NH2-].[NH2-].[NH2-].[Pt+2].[Pt+2]`, the T/C (dose: 3.12 mg/kg/injection, schedule: Q01DX005 (ip), vehicle: saline) was 127 % of control; the T/C (dose: 3.12 mg/kg/injection, schedule: Q01DX005 (ip), vehicle: suspension in saline) is 125 % of control; the T/C (dose: 6.25 mg/kg/injection, schedule: Q01DX005 (ip), vehicle: saline) is 130 % of control; the T/C (dose: 6.25 mg/kg/injection, schedule: Q01DX005 (ip), vehicle: water) is 125 % of control; the T/C (dose: 12.5 mg/kg/injection, schedule: Q01DX005 (ip), vehicle: saline) is 130 and 135 % of control; the T/C (dose: 15.0 mg/kg/injection, schedule: Q01DX005 (ip), vehicle: suspension in saline) is 127 % of control. The T/C (dose: 25.0 mg/kg/injection, schedule: Q01DX005 (ip), vehicle: saline) is 147 % of control. In addition, the survivor count reads like this: (dose: 50.0 mg/kg/injection, schedule: Q01DX005 (ip), vehicle: saline) 3 of 6; (dose: 69.44 mg/kg/injection, schedule: Q01DX005 (ip), vehicle: suspension in saline) 1 of 6.

With `Cc1ncc2n1-c1ccc(Cl)cc1C(c1ccccc1F)=NC2`, the survivor count under setting [1] is 3 of 6.

Take `CCCCCCCCCC(=O)NC(CN1CCOCC1)C(=O)c1ccccc1` (stereo not drawn): the survivor count (dose: 100.0 mg/kg/injection, schedule: Q04DX003 (ip), vehicle: saline) is listed as 6 of 6.

Turning to `C/C=C(\C)C(=O)N/N=C\C=C\c1ccccc1`, the survivor count under setting [4] is on record as 5 of 5, the survivor count under setting [5] was 2 of 5 and the survivor count under setting [6] was 1 of 4.

Turning to `O=C(CCCN1CCN(c2cc3ccccc3cn2)CC1)c1ccc(F)cc1`, the survivor count reads like this: under setting [5], 4 of 6; under setting [6], 1 of 6.

For the molecule `CNC(=O)OCc1c(COC(=O)NC)c(C)n(-c2ccc3c(c2)OCO3)c1C`, the T/C reads like this: (dose: 12.5 mg/kg/injection, schedule: Q01DX009 (ip), vehicle: Klucel (hydroxypropylcellulose) (HPC)) 132 and 146 % of control; under setting [2], 144 and 146 % of control. Under setting [3], the survivor count is recorded as 2 of 6.

Turning to `CCOP1(OCC)(SSC)OC(=O)C(C)S1` (stereo not drawn), the survivor count is on record as 2 of 6 (dose: 120.0 mg/kg/injection, schedule: Q01DX005 (ip), vehicle: saline with Tween-80) and 0 of 6 (dose: 240.0 mg/kg/injection, schedule: Q01DX005 (ip), vehicle: saline with Tween-80).

Take `COc1ccc(N2C(=O)c3ccc4c5ccc6c7c(ccc(c8ccc(c3c48)C2=O)c75)C(=O)NC6=O)cc1`: the survivor count under setting [4] is 6 of 6.

For the molecule `O=C1NN=C(c2ccccc2)CS1`, the survivor count (dose: 200.0 mg/kg/injection, schedule: Q01DX009 (ip), vehicle: saline with Tween-80) was 4 of 6.

On to `CC(CN(C)C)C(=O)/C=C/c1ccc(Cl)cc1` (stereo not drawn), for which the survivor count (dose: 240.0 mg/kg/injection, schedule: Q01DX005 (ip), vehicle: saline) is listed as 0 of 6.

Consider `CCN(CC)C1CC(O[C@H]2C[C@](O)(C(=O)CO)Cc3c(O)c4c(c(O)c32)C(=O)c2c(OC)cccc2C4=O)OC(C)C1O` (stereo partly drawn), for which the T/C is 125 and 142 % of control (dose: 0.39 mg/kg/injection, schedule: Q01DX009 (ip), vehicle: water); 142 and 148 % of control (dose: 0.78 mg/kg/injection, schedule: Q01DX009 (ip), vehicle: water); 149 % of control (dose: 1.56 mg/kg/injection, schedule: Q01DX009 (ip), vehicle: water). In addition, the survivor count is 5 of 6 and 6 of 6 (dose: 6.25 mg/kg/injection, schedule: Q01DX009 (ip), vehicle: water); 2 of 6 and 3 of 6 (dose: 12.5 mg/kg/injection, schedule: Q01DX009 (ip), vehicle: water).

Consider `CC(=O)CN1CCSC1=N`, for which the survivor count is, setting by setting: (dose: 200.0 mg/kg/injection, schedule: Q01DX001 (ip), vehicle: saline) 3 of 6; (dose: 400.0 mg/kg/injection, schedule: Q01DX001 (ip), vehicle: saline) 0 of 6.

For `N#Cc1ccc(NN=NCCF)cc1`, the survivor count runs as follows: (dose: 12.5 mg/kg/injection, schedule: Q01DX005 (ip), vehicle: distilled water + Tween-80) 3 of 6; under setting [7], 0 of 6; (dose: 25.0 mg/kg/injection, schedule: Q01DX005 (ip), vehicle: saline with Tween-80) 3 of 6; (dose: 50.0 mg/kg/injection, schedule: Q01DX005 (ip), vehicle: distilled water + Tween-80) 0 of 6; (dose: 50.0 mg/kg/injection, schedule: Q01DX005 (ip), vehicle: saline with Tween-80) 3 of 6; (dose: 100.0 mg/kg/injection, schedule: Q01DX005 (ip), vehicle: distilled water + Tween-80) 0 of 6. The survivor count (dose: 200.0 mg/kg/injection, schedule: Q01DX005 (ip), vehicle: distilled water + Tween-80) is 0 of 6. For the same molecule, under setting [7], the T/C was 136 % of control [4 of 6 alive].
